Measured values reported in paper doi:10.1101/2022.12.30.521597 (bioRxiv, 2022).
No constants are given. Whether binding was seen depends on the method and setting. Binding calls can cover weak binding; strength is not graded here. For part of these data: In cells and extracts the contact can be indirect. For part of these data: Where a sequence is shown, tags or fusion partners need not be part of it.

B1: MLO6^CT (carboxyl terminus of MLO6, yeast two-hybrid prey) (domain or fragment, UniProt Q94KB7 433-583)
chain: VTQMGSKMKPTVFNERVATALKSWHHTAKKNIKHGRTSESTTPFSSRPTTPTHGSSPIHLLRNAPHKRSRSVDESFANSFSPRNSDFDSWDPESQHETAETSNSNHRSRFGEEESEKKFVSSSVELPPGPGQIRTQHEISTISLRDFSFKR
B2: MLO6-NLuc (natural protein)
chain: MADQVKEKTLEETSTWAVAVVCFVLLLISIVIEKLIHKIGSWFKKKNKKALYEALEKVKAELMLMGFISLLLTIGQGYISNICIPKNIAASMHPCSASEEARKYGKKDVPKEDEEENLRRKLLQLVDSLIPRRSLATKGYDKCAEKGKVAFVSAYGMHQLHIFIFVLAVCHVIYCIVTYALGKTKMRRWKKWEEETKTIEYQYSHDPERFRFARDTSFGRRHLSFWSKSTITLWIVCFFRQFFRSVTKVDYLTLRHGFIMAHLAPGSDARFDFRKYIQRSLEEDFKTIVEINPVIWFIAVLFLLTNTNGLNSYLWLPFIPFIVILIVGTKLQVIITKLGLRIQEKGDVVKGTPLVQPGDHFFWFGRPRFILFLIHLVLFTNAFQLAFFVWSTYEFGLKNCFHESRVDVIIRISIGLLVQILCSYVTLPLYALVTQMGSKMKPTVFNERVATALKSWHHTAKKNIKHGRTSESTTPFSSRPTTPTHGSSPIHLLRNAPHKRSRSVDESFANSFSPRNSDFDSWDPESQHETAETSNSNHRSRFGEEESEKKFVSSSVELPPGPGQIRTQHEISTISLRDFSFKR
B3: MLO6^IC2 (second intracellular loop of MLO6, yeast two-hybrid prey) (domain or fragment, UniProt Q94KB7 183-284)
chain: KTKMRRWKKWEEETKTIEYQYSHDPERFRFARDTSFGRRHLSFWSKSTITLWIVCFFRQFFRSVTKVDYLTLRHGFIMAHLAPGSDARFDFRKYIQRSLEED

Experiments:
[1] = target: EXO70H4 (yeast two-hybrid bait, Gal4 BD fusion) (A. thaliana); test: two-hybrid
[2] = target: CLuc-HvCam3 (barley calmodulin 3) (barley); test: split reporter

Binder	binding [1]	binding [2]
B1	binds	
B2		binds
B3	no binding	
